No constants are given. Whether binding was seen depends on the method and setting. Some entries that bind do so weakly or less than the wild type.
Target: pEG202-K-rev bait (LexA-K-rev-1) (UniProt P62834)
Test: yeast interaction trap, LEU2 and LacZ reporters

Chains of the proteins cited; added tags and fusions are not shown.
UniProt P62834: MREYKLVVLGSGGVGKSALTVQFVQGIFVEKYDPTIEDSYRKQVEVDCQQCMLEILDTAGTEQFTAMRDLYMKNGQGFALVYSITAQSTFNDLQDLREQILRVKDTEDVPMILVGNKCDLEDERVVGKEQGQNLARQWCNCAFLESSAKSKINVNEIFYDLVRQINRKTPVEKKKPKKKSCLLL

B1: Krit1 (protein, UniProt O00522 208-736, looked up)
chain: MGYSALEIKSKMLALEKADTCIYNPLFGSDLQYTNRVDKVVINPYFGLGAPDYSKIQIPKQEKWQRSMSSVTEDKERQWVDDFPLHRSACEGDSELLSRLLSERFSVNQLDSDHWAPIHYACWYGKVEATRILLEKGKCNPNLLNGQLSSPLHFAAGGGHAEIVQILLNHPETDRHITDQQGRSPLNICEENKQNNWEEAAKLLKEAINKPYEKVRIYRMDGSYRSVELKHGNNTTVQQIMEGMRLSQETQQYFTIWICSENLSLQLKPYHKPLQHVRDWPEILAELTNLDPQRETPQLFLRRDVRLPLEVEKQIEDPLAILILFDEARYNLLKGFYTAPDAKLITLASLLLQIVYGNYESKKHKQGFLNEENLKSIVPVTKLKSKAPHWTNRILHEYKNLSTSEGVSKEMHHLQRMFLQNCWEIPTYGAAFFTGQIFTKASPSNHKVIPVYVGVNIKGLHLLNMETKALLISLKYGCFMWQLGDTDTCFQIHSMENKMSFIVHTKQAGLVVKLLMKLNGQLMPTERNS
With B1 the binding was “binds”.
